Source: PubChem BioAssay AID720505 (Drosophila RNAi Screening Center, 2013)
Assay: 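Fly regulators or components of the CRAC channel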 (primary screen). System: Drosophila S2R+ cells. Reagents: long dsRNA against Drosophila genes. Challenge: thapsigargin (2 µM) in calcium-free buffer to empty internal stores, then 2 mM calcium added back. Measured: 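Stores emptied by 2 µM thapsigargin without calcium, then 2 mM calcium re-added; fluo-4 fluorescence followed by FLIPR in 384-well plates, per-well averaged endpoint, raw; two screen passes, some wells retested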. Scale: calcium signal and retest calcium signal: higher = more calcium entry after store depletion. Hit rule: 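Knock-downs counted as hits when calcium entry dropped relative to STIM1 positive and Rho1 negative controls present on each plate; roughly 1500 genes called, with reductions of differing size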. Calls: active = called as lowering calcium entry; inactive = not called.
The screen tested about 20,000 reagents; below is a random part of those that have a named target and a result. Of all reagents, about 2,100 (10%) were called active. 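Raw plate signals without normalisation; calls rest on control-based scores that were not deposited; replicate 2 separates called from uncalled poorly.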 Entries without a mark were called inactive. Reagents against one gene are numbered here. A plus sign joins genes that one reagent is predicted to hit. Not stated in the record: the amount of reagent, the time to read-out.

| gene knocked down | reagent | calcium signal, replicate 1 | calcium signal, replicate 2 | retest calcium signal, replicate 1 | retest calcium signal, replicate 2 |
| --- | --- | --- | --- | --- | --- |
| CG30114 | 1 | 61.9 (active) | 160 | – | – |
| TM9SF4 | 1 | 93.4 | 110 | – | – |
| CG34277 + CG31542 | 1 | 242 | 111 | – | – |
| CAH15 | 1 | 172 | 96.7 | – | – |
| ago | 1 | 80.4 | 117 | – | – |
| rin | 1 | 158 | 225 | – | – |
| rin | 2 | 115 | 120 | – | – |
| CG18063 | 1 | 129 | 130 | – | – |
| Alg11 | 1 | 135 | 95.4 | – | – |
| Rbpn-5 | 1 | 148 | 94.7 | – | – |
| CG13954 | 1 | 121 | 102 | – | – |
| CG5756 | 1 | 166 | 126 | – | – |
| beat-Va | 1 | 186 | 83.4 | – | – |
| Nop56 | 1 | 132 | 164 | – | – |
| CG34160 | 1 | 214 | 123 | – | – |
| betaNACtes3 | 1 | 128 | 182 | – | – |
| btz | 1 | 128 | 158 | – | – |
| CG31021 | 1 | 130 | 213 | – | – |
| Utx | 1 | 205 | 136 | – | – |
| CG32436 | 1 | 95.4 | 115 | – | – |
| CG32436 | 2 | 83.5 | 155 | – | – |
| Klp64D | 1 | 123 | 86.7 | – | – |
| CG4984 + CG4975 | 1 | 168 | 165 | – | – |
| CG4984 + CG4975 | 2 | 114 | 167 | – | – |
| CG5882 | 1 | 159 | 159 | – | – |
| CG5757 | 1 | 168 | 89.3 | – | – |
| frj | 1 | 103 | 142 | – | – |
| cmet | 1 | 177 | 141 | – | – |
| CG2577 | 1 | 107 | 90.5 | – | – |
| CG2577 | 2 | 124 | 135 | – | – |
| CG34242 | 1 | 67.7 | 96.8 | – | – |
| CG7786 | 1 | 130 | 108 | – | – |
| CG31560 | 1 | 109 | 88.2 | – | – |
| GCS1 | 1 | 113 | 106 | – | – |
| Arc42 | 1 | 162 | 161 | – | – |
| Arc42 | 2 | 185 | 179 | – | – |
| TwdlQ | 1 | 108 | 95.7 | – | – |
| TwdlQ | 2 | 179 | 142 | – | – |
| CG42335 | 1 | 128 | 162 | – | – |
| CG42335 | 2 | 166 | 114 | – | – |
| CG4250 | 1 | 111 | 136 | – | – |
| CG10910 | 1 | 129 | 131 | 89.2 | 86.9 |
| dgt1 | 1 | 119 | 87.1 | – | – |
| Sox14 | 1 | 188 | 226 | – | – |
| Fim | 1 | 73.5 (active) | 100 | – | – |
| ND-SGDH | 1 | 37.9 (active) | 81.9 | – | – |
| CG9313 | 1 | 193 | 82.5 | – | – |
| AspRS | 1 | 139 | 112 | – | – |
| Rx | 1 | 79.1 | 7138 | – | – |
| Rx | 2 | 155 | 109 | – | – |
| TwdlG | 1 | 81.9 | 170 | – | – |
| MED15 | 1 | 64.8 (active) | 151 | – | – |
| CG8925 | 1 | 151 | 175 | – | – |
| CG8925 | 2 | 155 | 227 | – | – |
| CG8925 | 3 | 160 | 181 | – | – |
| SPE | 1 | 172 | 205 | – | – |

Reagents listed so far called active:
| gene knocked down | reagent | calcium signal, replicate 1 | calcium signal, replicate 2 | retest calcium signal, replicate 1 | retest calcium signal, replicate 2 |
| --- | --- | --- | --- | --- | --- |
| CG30114 | 1 | 61.9 (active) | 160 | – | – |
| Fim | 1 | 73.5 (active) | 100 | – | – |
| ND-SGDH | 1 | 37.9 (active) | 81.9 | – | – |
| MED15 | 1 | 64.8 (active) | 151 | – | – |
